# Among all 340,000 compounds or so, about 170 (0.05%) were called active. This list was built around the results that the source calls inconclusive (neither active nor inactive); the mix of calls is not that of the screen. Calls come from the whole dose curve; as a rule, active = well fitted inhibition curve with a large enough effect in the signal ratio, with a control signal flat (not every such curve was filed as active); inconclusive = small, poorly fitted or top-dose-only effect, or effect the other way, or a change in a side signal; inactive = flat fitted curve, though single readings scatter; the % refers to the signal ratio. Potencies of inconclusive entries are doubtful fits and often do not repeat.
# Experiment: qHTS Assay to Find Inhibitors of Chronic Active B-Cell Receptor Signaling;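 for activity change, negative = inhibition: plate controls were basal doxycycline-induced cells for no effect and cells given 10 µM MG132 for full effect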
# Conditions: ABC-DLBCL IkBa-CBG/CBR reporter, luminescence ratio (green luciferase fused to IkBa over red control in TMD8 lymphoma cells), 4 h; activity change, negative = inhibition: at 46.1 µM (top of the series)
# In short: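 TMD8 ABC-DLBCL cells carrying doxycycline-inducible green luciferase fused to IkappaBalpha plus unfused red luciferase were exposed to compounds (up to 46 uM) for 4 hrs at 37C. Activity came from the overlap-corrected green/red luminescence ratio.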
# Potency is the fitted concentration of half-maximal effect.
Structure (SMILES),"activity change, negative = inhibition",Potency
CCNc1nc(NCC)nc(N(C)N)n1,inactive: -12.9%,
COc1ccc(/C=N/Nc2nncn2N)cc1Br,,"inconclusive: 35.5 µM [falling, partial curve, poor fit]"
O=C(Nc1ccc2nc3ccccc3nc2c1)c1ccc(Br)cc1,,"inconclusive: 0.651 µM [rising, full curve, poor fit]"
O=C(CCl)Nc1nc(-c2ccco2)c(-c2ccco2)s1,inconclusive: -7.81%,
Cc1ccc(C(=O)NC2CCc3ccccc3C2=O)cc1 (stereo not given),,"inconclusive: 17.8 µM [falling, partial curve]"
COc1cc2c3nnc(-c4ccc(F)cc4)c-3cn(Cc3ccccc3)c2cc1OC,,"inconclusive: 25.9 µM [rising, partial curve, poor fit]"
Cc1cc(/C=N\NC(=O)COc2cccc3cccnc23)c(C)n1-c1ccccc1,inconclusive: -0.144%,
Cc1ccc2nc(NCc3ccccc3)c(C=NCc3cccnc3)c(=O)n2c1,inconclusive: 3.48%,
COc1ccccc1C(=O)NCCNc1nc2cc(C)cc(C)c2cc1C#N,inactive: 5.43%,
COc1ccc(C(=O)Nc2cccc(C(=O)NCc3ccco3)c2)cc1,inconclusive: -28.8%,
O=c1cc(CN2CCOCC2)c2c(ccc3ccccc32)o1,inconclusive: 1.86%,
CC(NC(=S)Nc1cccc(C(F)(F)F)c1)C(C)(C)C (stereo not given),inconclusive: 0.455%,
O=C1CN(C(=O)COC(=O)CCSc2ccccc2Cl)c2ccccc2N1,inconclusive: 13.5%,
Cc1ccccc1NC(=O)c1ccc(-c2ccc(Cl)cc2Cl)o1,,"inconclusive: 29.1 µM [falling, partial curve, poor fit]"
Cc1cc(C(F)(F)F)nn1CCCNC(=O)c1cnccn1,,"inconclusive: 23.1 µM [falling, partial curve, poor fit]"
Cn1c(Nc2ccc(Cl)cc2)cc(=O)n(C)c1=O,inconclusive: 1.05%,
CC(C)OC(=O)c1ccc(NC(=S)NC(=O)c2cncc(Br)c2)cc1,inconclusive: 1.36%,
O=C(Nc1ccc(Cl)c([N+](=O)[O-])c1)c1ccncc1,inconclusive: 7.01%,
CCC1=NN2C(=N)/C(=C/c3cc(C)n(-c4ccccc4)c3C)C(=O)N=C2S1,inconclusive: 4.15%,
O=C(NC1=NCCS1)C1CCN(S(=O)(=O)c2cc([N+](=O)[O-])ccc2Cl)CC1,,"inconclusive: 29.1 µM [falling, single point]"
CC1CCN(c2c(NCc3ccc(C(=O)NCc4cccnc4)cc3)c(=O)c2=O)CC1,inconclusive: -2.09%,
CCOc1ccc(C(=O)NCCN2CCOCC2)cc1,,"inconclusive: 5.62 µM [falling, single point]"
O=c1c2ccccc2nc(SCc2nc(-c3ccccc3)no2)n1-c1ccc(F)cc1,inconclusive: 4.47%,
CC(C)C[C@H](NC(=O)c1nc[nH]c1C(=O)NCC(=O)OC(C)(C)C)C(=O)OC(C)(C)C,inconclusive: 8.63%,
CCn1cc(C(=O)N[C@H](C(=O)NCCCOC)C(C)C)c(=O)c2cc3c(cc21)OCO3,inconclusive: -0.91%,
COc1cccc(/C=C/C(=O)NNC(=O)c2ccco2)c1OC,,"inconclusive: 29.1 µM [falling, partial curve, poor fit]"
COc1cc(OC)c(C(=O)NNC(=O)c2ccccc2-n2cccc2)cc1OC,,"inconclusive: 29.1 µM [falling, single point]"

# Gathered by group: the entries above containing fluorine.
Structure (SMILES),"activity change, negative = inhibition",Potency
COc1cc2c3nnc(-c4ccc(F)cc4)c-3cn(Cc3ccccc3)c2cc1OC,,"inconclusive: 25.9 µM [rising, partial curve, poor fit]"
CC(NC(=S)Nc1cccc(C(F)(F)F)c1)C(C)(C)C (stereo not given),inconclusive: 0.455%,
Cc1cc(C(F)(F)F)nn1CCCNC(=O)c1cnccn1,,"inconclusive: 23.1 µM [falling, partial curve, poor fit]"
O=c1c2ccccc2nc(SCc2nc(-c3ccccc3)no2)n1-c1ccc(F)cc1,inconclusive: 4.47%,

# (further entries)

Structure (SMILES),"activity change, negative = inhibition",Potency
CC(CNC(=O)c1ccc(C#N)cc1)NC(=O)c1ccc(C#N)cc1 (stereo not given),inactive: -8.03%,
CC1=Nc2ccccc2/C1=C/c1sc(=O)n(CC(=O)N2CCCC2)c1O,inconclusive: -10.9%,
O=C(Nc1nccs1)C(NS(=O)(=O)c1ccc(Br)s1)c1ccccc1 (stereo not given),inconclusive: 8.49%,
O=C(c1cc2ccccc2oc1=O)N1CCSC1c1ccco1 (stereo not given),inconclusive: -49.6%,
CCOC(=O)CC(=O)CSc1nc(C)cc(-c2cccnc2)c1C#N,inconclusive: -1.59%,
CCOC(=O)Cn1cnc(-c2ccc([N+](=O)[O-])cc2)c1,inactive: -10.9%,
COC(=O)c1ccccc1NC(=O)c1cc2nc(C3CC3)cc(C(F)(F)F)n2n1,,"inconclusive: 10 µM [falling, partial curve, poor fit]"
O=C(O)c1cccc(NC2=C(Cl)C(=O)c3ccccc3C2=O)c1,,"inconclusive: 2.24 µM [falling, full curve, poor fit]"
O=C(O)c1ccc(-c2ccccc2)[nH]1,inconclusive: 20.5%,
Cc1cccc(Oc2nc3ccccn3c(=O)c2/C=C(\C#N)C(=O)NC2CCS(=O)(=O)C2)c1 (stereo not given),,"inconclusive: 29.1 µM [falling, single point]"
NC(=S)N=Nc1c(O)n(CC(=O)Nc2ccccc2)c2ccccc12,inconclusive: 0.652%,
COC(=O)c1c(NC(=O)c2cccnc2Cl)sc(C(=O)N(C)C)c1C,,"inconclusive: 20.6 µM [falling, partial curve, poor fit]"
COc1ccc(C2=CSC3=NCCN23)cc1Cl,inconclusive: -7.25%,
O=C(CNc1cc(S(=O)(=O)N2CCOCC2)ccc1NCC1CCCO1)Nc1cccc(F)c1 (stereo not given),inactive: -13%,
C/C=C\C=C\C(=O)Nc1cccc(C2=NOC3(C2)C[C@@H](C(N)=O)N(C(=O)C(c2ccccc2)c2ccccc2)C3)c1 (stereo not given in full),,"inconclusive: 22.4 µM [falling, single point]"
COc1ccccc1NC(=O)CN1C(=O)c2ccccc2Sc2ccc(C(=O)N3CCCC3)cc21,,"inconclusive: 17.8 µM [falling, single point]"
O=S(=O)(Nc1ccc(Cc2ccncc2)cc1)c1ccc(Cl)c(Cl)c1,inconclusive: -13.2%,
CC(C)(C)OC(=O)N1CCC(C(=O)Nc2ccc(C(=O)N3CCOCC3)cc2)CC1,inconclusive: 0.655%,
CCCC(=O)c1ccc(N2CCC(C)CC2)c(F)c1,inconclusive: 4.38%,
Cc1nn(-c2ccccc2)c(C)c1/C=N/NC(=O)c1cc(-c2ccc(Cl)s2)[nH]n1,inactive: 1.11%,
CCCCNC(=O)Nc1cc(C(=O)OC)ccc1C,inconclusive: -1.73%,
O=C(Nc1ccccc1N1CCCC1)c1cccc(Cl)c1Cl,inactive: -0.81%,
O=C(N/N=C1/CCSC1)c1cc(Br)ccc1O,,"inconclusive: 10 µM [rising, partial curve]"
O=C(NCCO)C1(c2ccc(Cl)cc2)CCCC1,inconclusive: 9.57%,
CCCCC#Cc1cncc(C(=O)NN)c1,,"inconclusive: 11.2 µM [falling, partial curve]"
Oc1ccc(/C=N/Nc2cccc(Cl)n2)c(O)c1,inconclusive: -28.9%,
Cc1ccc(NC(=O)NC(=O)N(C(C)C)S(C)(=O)=O)nc1,inactive: 4.53%,

Structure (SMILES),"activity change, negative = inhibition",Potency
O=C(Nc1ncnc2sc3c(c12)CCCCC3)c1ccc(F)cc1,inconclusive: 27.2%,
O=C(CS(=O)(=O)Cc1ccccc1)N1CCc2ccccc2C1,inconclusive: 2.29%,
COCc1cc(C)nc(N2CCNCC2)c1C#N,inconclusive: -10.1%,
O=C(O)Cc1ccc(C(=O)CSc2ccccc2)s1,,"inconclusive: 25.1 µM [falling, single point]"
Fc1ccc(-c2csc(=S)[nH]2)cc1,,"inconclusive: 35.5 µM [falling, single point]"
CC(C)N(C(=O)COC(=O)c1ccc(Cl)c(S(N)(=O)=O)c1)C(C)C,inactive: 1.61%,
COc1ccccc1-c1cc(C(=O)N/N=C\c2cn(C)nc2C)c2ccccc2n1,inconclusive: -5.31%,
CN(CCO)c1ccc(-c2n[nH]c(=O)c3ccccc23)cc1[N+](=O)[O-],,"inconclusive: 20 µM [falling, single point]"
Cc1ccnc2c1ccc1c(C)ccnc12,inconclusive: 1.44%,
CCC(=O)c1ccc(OCC(=O)N2CCc3cc(OC)c(OC)cc3C2)cc1,inconclusive: -13.4%,
CCCCNC(=O)c1cn(CC(C)C)c(=O)c2c1c1ccccc1n2C,inactive: -0.13%,
CN(C)c1cc(NC(=O)CNC(C)(C)C)c2ccccc2n1,inconclusive: -23.6%,
CC(=O)Nc1cccc(NC(=O)c2cc(C)on2)c1,,"inconclusive: 20.6 µM [falling, partial curve]"
CCc1nn(CC(=O)NCCc2ccc(S(N)(=O)=O)cc2)c(=O)c2cc3sccc3n12,inactive: 5.02%,
COc1cccc(CN2CC(C(=O)NCc3ccc(Cl)s3)CCC2=O)c1 (stereo not given),inconclusive: -2.14%,
O=C(COC(=O)c1ccc(O)cc1O)NC1CCCCCC1,,"inconclusive: 32.6 µM [falling, partial curve, poor fit]"
C=CCn1c(=O)/c(=C/c2ccc(Cl)cc2)s/c1=C(/C#N)c1nnc2n1CCCCC2,inconclusive: -4.64%,
O=C(c1ccc(F)cc1)N1CCN=C1c1ccccc1,inactive: 0.488%,
COc1ccccc1C(=O)N(CCC1CCCN1C)c1nc2ccccc2s1 (stereo not given),,"inconclusive: 7.08 µM [falling, full curve]"
Cc1ccc(S(=O)(=O)NCCC(=O)Oc2ccc3ccc(=O)oc3c2)cc1,inactive: -6.02%,
CCOC(=O)c1c(NC(=O)c2cc3nc(-c4ccc(Br)cc4)cc(C(F)(F)F)n3n2)sc(C(C)=O)c1C,inactive: -17.4%,
O=C(/C=C/c1ccco1)N1CCN(S(=O)(=O)c2cccc([N+](=O)[O-])c2)CC1,inconclusive: 5.99%,
CCOCc1[nH]c(=S)[nH]c(=O)c1Cc1ccc(OC(C)C)cc1,inconclusive: 17.3%,
COP(=O)(OC)c1nc(-c2ccc([N+](=O)[O-])cc2)oc1N1CCCCC1,inconclusive: -2.84%,
CCOCC(=O)Nc1ccccc1C(=O)OCC,inconclusive: 0.897%,
Cc1ccc(C(=O)O)cc1NC(=O)c1cccs1,inconclusive: 13.9%,

# Source: PubChem BioAssay AID493014 (National Center for Advancing Translational Sciences (NCATS), 2011)
